Results taken from publication PMC6237751.
These are yes or no findings as the source states them, for the method shown. In cells and extracts the contact can be indirect. Some results given as binding are weak or reduced against the parent protein; the word gives no strength.

Legend:
[1] = biological target: T1, AATF (human (endogenous in U-2 OS)) (UniProt Q9NY61); experiment: co-IP; AATF antibody on protein G Dynabeads, U-2 OS nuclear extract (SNEB buffer) prepared with 0.2 U/ml Benzonase, 2 h at 4°C; western analysis; IgG as negative control
T1 sequence: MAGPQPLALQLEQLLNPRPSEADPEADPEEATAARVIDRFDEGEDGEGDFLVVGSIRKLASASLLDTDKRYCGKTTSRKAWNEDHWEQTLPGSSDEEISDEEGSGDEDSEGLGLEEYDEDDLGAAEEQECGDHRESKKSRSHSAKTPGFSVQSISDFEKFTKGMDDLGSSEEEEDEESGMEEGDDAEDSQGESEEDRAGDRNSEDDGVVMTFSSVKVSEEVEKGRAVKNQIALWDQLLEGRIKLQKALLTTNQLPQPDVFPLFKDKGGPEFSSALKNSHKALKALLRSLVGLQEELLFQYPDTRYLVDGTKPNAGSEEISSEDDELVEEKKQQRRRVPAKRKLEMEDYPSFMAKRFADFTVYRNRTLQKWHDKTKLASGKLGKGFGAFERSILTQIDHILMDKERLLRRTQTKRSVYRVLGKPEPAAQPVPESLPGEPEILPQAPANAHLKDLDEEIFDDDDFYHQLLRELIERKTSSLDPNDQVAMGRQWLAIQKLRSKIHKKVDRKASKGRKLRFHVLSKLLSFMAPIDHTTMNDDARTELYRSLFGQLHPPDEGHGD

[2] = biological target: T1, AATF (human (endogenous in U-2 OS)); experiment: co-IP; AATF antibody on protein G Dynabeads, U-2 OS nuclear extract (SNEB buffer: 20 mM HEPES pH 7.5, 150 mM NaCl, 1% NP40, 0.5% deoxycholate, 0.1% SDS) prepared without Benzonase, 2 h at 4°C; western analysis; IgG as negative control

B1: NOL10 (protein, UniProt Q9BSC4 1-688)
chain: MQVSSLNEVKIYSLSCGKSLPEWLSDRKKRALQKKDVDVRRRIELIQDFEMPTVCTTIKVSKDGQYILATGTYKPRVRCYDTYQLSLKFERCLDSEVVTFEILSDDYSKIVFLHNDRYIEFHSQSGFYYKTRIPKFGRDFSYHYPSCDLYFVGASSEVYRLNLEQGRYLNPLQTDAAENNVCDINSVHGLFATGTIEGRVECWDPRTRNRVGLLDCALNSVTADSEINSLPTISALKFNGALTMAVGTTTGQVLLYDLRSDKPLLVKDHQYGLPIKSVHFQDSLDLILSADSRIVKMWNKNSGKIFTSLEPEHDLNDVCLYPNSGMLLTANETPKMGIYYIPVLGPAPRWCSFLDNLTEELEENPESTVYDDYKFVTKKDLENLGLTHLIGSPFLRAYMHGFFMDIRLYHKVKLMVNPFAYEEYRKDKIRQKIEETRAQRVQLKKLPKVNKELALKLIEEEEEKQKSTWKKKVKSLPNILTDDRFKVMFENPDFQVDEESEEFRLLNPLVSKISEKRKKKLRLLEQQELREKEEEEEPEGKPSDAESSESSDDEKAWVEEVRKQRRLLQQEEKVKRQERLKEDQQTVLKPQFYEIKAGEEFRSFKDSATKQKLMNKTLEDRLKIEAKNGTLSVSDTTVGSKQLTFTLKRSEQQKKQQEAEKLHRQERKRLRRSAGHLKSRHKRGRSFH
- binding [1]: binds
- binding [2]: binds
